Measured data: PubChem BioAssay AID504764 (Drosophila RNAi Screening Center, 2011)

Aim: 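Genome-wide screen for regulators of Notch-driven gene expression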 (primary screen)
System: Drosophila Kc167 cells
Knock-down reagent: long dsRNA against Drosophila genes
Time to read-out: about 5 days (4 days dsRNA, then 24 h after transfection)
Challenge: transfection of constitutively active membrane-tethered Notch lacking the extracellular domain, read 24 h later
Measured: 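Firefly luciferase from an E(spl)m3 reporter with active Notch, plus control-promoter and uninduced reporter wells for normalisation; unnormalised counts, duplicate wells a and b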
Direction: induced reporter light, run 1, well a and induced reporter light, run 1, well b: higher = more light from the Notch target reporter with active Notch; control promoter light, run 1, well a and control promoter light, run 1, well b: higher = more light from the viral control promoter (cell number, transfection, viability); uninduced reporter light, run 1, well a: higher = more light from the Notch target reporter without active Notch
Hit rule: 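Hit if the duplicate-averaged log2 ratio of induced to control-promoter light gives a plate-wise z beyond ±2, or induced to uninduced beyond ±1.8; weak-control or discordant-duplicate wells dropped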
Meaning of the calls: active = modifier hit (raised or lowered Notch signal); inactive = not a hit
In all, the deposit lists about 22,000 reagents; below is a random part of those with a known target gene and a result. Over the whole deposit, 403 (1.9%) are marked active. 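Unnormalised raw counts per well; ratio z-scores behind the hit calls and whether each hit raises or lowers signal are not deposited.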 Names joined by + are all predicted targets of the reagent. Not given: the amount of reagent.

| predicted target | amplicon | induced reporter light, run 1, well a | induced reporter light, run 1, well b | control promoter light, run 1, well a | control promoter light, run 1, well b | uninduced reporter light, run 1, well a | Outcome |
| --- | --- | --- | --- | --- | --- | --- | --- |
| CG17944 | DRSC12572 | 87500 | 81295 | 61920 | 58335 | 5430 | inactive |
| BaraA1 + BaraA2 | DRSC05417 | 2.76e5 | 2.63e5 | 3.40e5 | 2.68e5 | 18335 | inactive |
| mRpS18C (mitochondrial ribosomal protein S18C) | DRSC16538 | 1.50e5 | 1.32e5 | 1.91e5 | 1.69e5 | 12080 | inactive |
| Ak3 (Adenylate kinase 3) | DRSC16075 | 79120 | 71330 | 89555 | 69960 | 6985 | inactive |
| CG7272 | DRSC10795 | 1.51e5 | 1.45e5 | 2.23e5 | 2.10e5 | 6095 | inactive |
| CG33181 | DRSC17971 | 1.36e5 | 1.78e5 | 2.16e5 | 2.11e5 | 12260 | inactive |
| CG33181 | DRSC22376 | – | – | – | – | – | inactive |
| levy | DRSC04289 | 2.41e5 | 2.68e5 | 2.49e5 | 2.42e5 | 18620 | inactive |
| Exn (Ephexin) | DRSC09673 | 99720 | 1.06e5 | 76135 | 98320 | 8765 | inactive |
| Exn (Ephexin) | DRSC10077 | 2.48e5 | 1.87e5 | 2.54e5 | 2.28e5 | 9610 | inactive |
| GlyT (Glycine transporter) | DRSC04512 | 1.65e5 | 1.38e5 | 1.71e5 | 1.54e5 | 9935 | inactive |
| CG15580 | DRSC12266 | 95040 | 96380 | 1.08e5 | 72560 | 6755 | inactive |
| rg (rugose) | DRSC17377 | 95265 | 84395 | 1.01e5 | 1.09e5 | 6525 | inactive |
| rg (rugose) | DRSC17726 | 2.37e5 | 2.23e5 | 3.36e5 | 3.69e5 | 16915 | inactive |
| rg (rugose) | DRSC18049 | 1.29e5 | 1.52e5 | 2.78e5 | 2.49e5 | 8600 | inactive |
| nrv3 (nervana 3) | DRSC03097 | 1.94e5 | 1.80e5 | 2.62e5 | 2.32e5 | 12065 | inactive |
| CG10903 | DRSC14281 | 44780 | 38710 | 30125 | 26170 | 3045 | inactive |
| pHCl-2 (pH-sensitive chloride channel 2) | DRSC14306 | 1.27e5 | 1.31e5 | 2.00e5 | 2.02e5 | 10165 | inactive |
| Adgf-D (Adenosine deaminase-related growth factor D) | DRSC16521 | 2.03e5 | 2.33e5 | 1.91e5 | 2.26e5 | 16260 | inactive |
| Letm1 | DRSC04476 | 52430 | 63585 | 38245 | 48780 | 3455 | inactive |
| CG17917 | DRSC12570 | 96875 | 1.07e5 | 1.04e5 | 93855 | 7205 | inactive |
| CG7744 | DRSC07036 | 1.05e5 | 96855 | 2.05e5 | 2.12e5 | 8638 | inactive |
| Cpr35B (Cuticular protein 35B) | DRSC01949 | 1.46e5 | 1.64e5 | 1.27e5 | 1.40e5 | 12055 | inactive |
| alpha-Man-IIb (alpha-Mannosidase class II b) | DRSC16898 | 2.23e5 | 2.55e5 | 3.32e5 | 3.63e5 | 18475 | inactive |
| sqh (spaghetti squash) | DRSC18837 | 74725 | 62220 | 1.44e5 | 1.36e5 | 6000 | active |
| CG11269 | DRSC04094 | 41495 | 37220 | 36455 | 32735 | 1765 | inactive |
| ND-39 (NADH dehydrogenase (ubiquinone) 39 kDa subunit) | DRSC11791 | 84305 | 99880 | 51535 | 61655 | 5862 | inactive |
| CG11839 | DRSC14398 | 1.67e5 | 1.18e5 | 1.76e5 | 1.57e5 | 10500 | inactive |
| CG31953 (retired record) + gkt | DRSC00709 | 1.62e5 | 1.93e5 | 2.11e5 | 1.94e5 | 15025 | inactive |
| CG32100 | DRSC09725 | 63700 | 59490 | 87070 | 63965 | 4360 | inactive |
| CG32100 | DRSC10331 | 91770 | 74605 | 1.08e5 | 68795 | 5840 | inactive |
| Mctp (Multiple C2 domain and transmembrane region protein) | DRSC06510 | 69870 | 70340 | 95095 | 97525 | 7060 | inactive |
| CG8641 | DRSC11028 | 1.74e5 | 1.76e5 | 2.25e5 | 1.62e5 | 9115 | inactive |
| Cyp318a1 (Cytochrome P450 318a1) | DRSC19784 | 1.40e5 | 1.23e5 | 2.32e5 | 2.22e5 | 9440 | inactive |
| PolI (DNA polymerase iota) | DRSC16267 | 59400 | 74290 | 63595 | 45120 | 6230 | inactive |
| CG5500 | DRSC15820 | 1.65e5 | 1.14e5 | 1.59e5 | 1.54e5 | 12005 | inactive |
| yata | DRSC15408 | 1.15e5 | 1.04e5 | 1.60e5 | 1.59e5 | 9325 | inactive |
| Art2 (Arginine methyltransferase 2) | DRSC00627 | 2.33e5 | 2.31e5 | 2.75e5 | 2.31e5 | 12405 | inactive |
| Mdr50 (Multi drug resistance 50) | DRSC07467 | 88440 | 85310 | 1.28e5 | 1.25e5 | 7805 | inactive |
| blw (bellwether) | DRSC04675 | 90325 | 78150 | 99705 | 95020 | 5530 | inactive |
| CG12860 | DRSC06200 | 79645 | 96645 | 1.25e5 | 92545 | 7630 | inactive |
| CG9775 | DRSC12330 | 1.37e5 | 1.39e5 | 1.09e5 | 1.31e5 | 9565 | inactive |
| CG9775 | DRSC22667 | – | – | – | – | – | active |
| ND-B16.6 (NADH dehydrogenase (ubiquinone) B16.6 subunit) | DRSC18306 | 1.69e5 | 1.73e5 | 2.49e5 | 2.76e5 | 11310 | inactive |
| GstZ2 (Glutathione S transferase Z2) | DRSC16479 | 1.59e5 | 1.42e5 | 87710 | 79405 | 11335 | inactive |
| CG11854 | DRSC14409 | 1.44e5 | 1.32e5 | 1.70e5 | 1.84e5 | 11882 | inactive |
| Hakai | DRSC02031 | 2.62e5 | 2.34e5 | 2.15e5 | 2.18e5 | 18225 | inactive |
| CG32432 | DRSC11703 | 8395 | 7685 | 8225 | 6900 | 1805 | inactive |
| CG32432 | DRSC11704 | 15370 | 15655 | 15785 | 11940 | 2960 | inactive |
| CG32432 | DRSC11744 | 1.84e5 | 1.18e5 | 1.23e5 | 89260 | 15955 | inactive |

5 successive records from above:
| predicted target | amplicon | induced reporter light, run 1, well a | induced reporter light, run 1, well b | control promoter light, run 1, well a | control promoter light, run 1, well b | uninduced reporter light, run 1, well a | Outcome |
| --- | --- | --- | --- | --- | --- | --- | --- |
| Mctp (Multiple C2 domain and transmembrane region protein) | DRSC06510 | 69870 | 70340 | 95095 | 97525 | 7060 | inactive |
| CG8641 | DRSC11028 | 1.74e5 | 1.76e5 | 2.25e5 | 1.62e5 | 9115 | inactive |
| Cyp318a1 (Cytochrome P450 318a1) | DRSC19784 | 1.40e5 | 1.23e5 | 2.32e5 | 2.22e5 | 9440 | inactive |
| PolI (DNA polymerase iota) | DRSC16267 | 59400 | 74290 | 63595 | 45120 | 6230 | inactive |
| CG5500 | DRSC15820 | 1.65e5 | 1.14e5 | 1.59e5 | 1.54e5 | 12005 | inactive |
